For one test, the target named is FIRΔexon2-FLAG (human). The test can be described thus: affinity purification with mass spectrometry; Flag-conjugated beads pull down of FIR-FLAG or FIRΔexon2-FLAG from HeLa cells, GeLC-MS / LC-MS; data first obtained with the cell systems of ref. 9 and re-evaluated here.
The target in test [1] is FIR-FLAG (far-upstream element-binding protein (FUBP) 1-interacting repressor) (human) (UniProt Q9UHX1). The test is described as above.

Protein sequences, listed by entry. Tags and fused reporters are not part of them. Lines headed by an entry give the natural chain unless they say otherwise; changes in a name come on top. Chains listed by the source or under a name are the forms on record and can include a tag or linker.
FIR-FLAG (far-upstream element-binding protein (FUBP) 1-interacting repressor) (Q9UHX1, form named): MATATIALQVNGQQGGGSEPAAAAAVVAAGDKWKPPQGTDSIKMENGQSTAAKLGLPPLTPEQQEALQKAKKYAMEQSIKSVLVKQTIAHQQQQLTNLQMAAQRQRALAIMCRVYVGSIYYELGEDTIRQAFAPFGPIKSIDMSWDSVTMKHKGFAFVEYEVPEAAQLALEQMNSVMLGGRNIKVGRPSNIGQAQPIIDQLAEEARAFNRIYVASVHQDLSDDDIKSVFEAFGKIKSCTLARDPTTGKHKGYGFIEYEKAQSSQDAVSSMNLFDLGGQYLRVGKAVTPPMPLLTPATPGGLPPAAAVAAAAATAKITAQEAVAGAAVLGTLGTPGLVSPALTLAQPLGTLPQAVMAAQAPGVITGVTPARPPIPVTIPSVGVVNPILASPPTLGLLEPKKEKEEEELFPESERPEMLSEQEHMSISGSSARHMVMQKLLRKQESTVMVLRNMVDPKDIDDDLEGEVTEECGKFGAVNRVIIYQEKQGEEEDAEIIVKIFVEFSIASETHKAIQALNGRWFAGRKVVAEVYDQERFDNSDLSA

No constants are given. Whether binding was seen depends on the method and setting. Binding seen in cells or lysates may run through a third protein. Here binding means that the protein was enriched with, or labelled near, the bait; the list need not be complete.

B1: ATP-dependent RNA helicase DDX24 (protein, UniProt Q9GZR7 1-859)
chain: MKLKDTKSRPKQSSCGKFQTKGIKVVGKWKEVKIDPNMFADGQMDDLVCFEELTDYQLVSPAKNPSSLFSKEAPKRKAQAVSEEEEEEEGKSSSPKKKIKLKKSKNVATEGTSTQKEFEVKDPELEAQGDDMVCDDPEAGEMTSENLVQTAPKKKKNKGKKGLEPSQSTAAKVPKKAKTWIPEVHDQKADVSAWKDLFVPRPVLRALSFLGFSAPTPIQALTLAPAIRDKLDILGAAETGSGKTLAFAIPMIHAVLQWQKRNAAPPPSNTEAPPGETRTEAGAETRSPGKAEAESDALPDDTVIESEALPSDIAAEARAKTGGTVSDQALLFGDDDAGEGPSSLIREKPVPKQNENEEENLDKEQTGNLKQELDDKSATCKAYPKRPLLGLVLTPTRELAVQVKQHIDAVARFTGIKTAILVGGMSTQKQQRMLNRRPEIVVATPGRLWELIKEKHYHLRNLRQLRCLVVDEADRMVEKGHFAELSQLLEMLNDSQYNPKRQTLVFSATLTLVHQAPARILHKKHTKKMDKTAKLDLLMQKIGMRGKPKVIDLTRNEATVETLTETKIHCETDEKDFYLYYFLMQYPGRSLVFANSISCIKRLSGLLKVLDIMPLTLHACMHQKQRLRNLEQFARLEDCVLLATDVAARGLDIPKVQHVIHYQVPRTSEIYVHRSGRTARATNEGLSLMLIGPEDVINFKKIYKTLKKDEDIPLFPVQTKYMDVVKERIRLARQIEKSEYRNFQACLHNSWIEQAAAALEIELEEDMYKGGKADQQEERRRQKQMKVLKKELRHLLSQPLFTESQKTKYPTQSGKPPLLVSAPSKSESALSCLSKQKKKKTKKPKEPQPEQPQPSTSAN
In the case of B1, the binding entry (with FIRΔexon2-FLAG (human); in test [1]) was “binds” each time.

B2: CCAAT/enhancer-binding protein zeta (protein, UniProt Q03701 1-1054)
chain: MAAVKEPLEFHAKRPWRPEEAVEDPDEEDEDNTSEAENGFSLEEVLRLGGTKQDYLMLATLDENEEVIDGGKKGAIDDLQQGELEAFIQNLNLAKYTKASLVEEDEPAEKENSSKKEVKIPKINNKNTAESQRTSVNKVKNKNRPEPHSDENGSTTPKVKKDKQNIFEFFERQTLLLRPGGKWYDLEYSNEYSLKPQPQDVVSKYKTLAQKLYQHEINLFKSKTNSQKGASSTWMKAIVSSGTLGDRMAAMILLIQDDAVHTLQFVETLVNLVKKKGSKQQCLMALDTFKELLITDLLPDNRKLRIFSQRPFDKLEQLSSGNKDSRDRRLILWYFEHQLKHLVAEFVQVLETLSHDTLVTTKTRALTVAHELLCNKPEEEKALLVQVVNKLGDPQNRIATKASHLLETLLCKHPNMKGVVSGEVERLLFRSNISSKAQYYAICFLNQMALSHEESELANKLITVYFCFFRTCVKKKDVESKMLSALLTGVNRAYPYSQTGDDKVREQIDTLFKVLHIVNFNTSVQALMLLFQVMNSQQTISDRYYTALYRKMLDPGLMTCSKQAMFLNLVYKSLKADIVLRRVKAFVKRLLQVTCQQMPPFICGALYLVSEILKAKPGLRSQLDDHPESDDEENFIDANDDEDMEKFTDADKETEIVKKLETEETVPETDVETKKPEVASWVHFDNLKGGKQLNKYDPFSRNPLFCGAENTSLWELKKLSVHFHPSVALFAKTILQGNYIQYSGDPLQDFTLMRFLDRFVYRNPKPHKGKENTDSVVMQPKRKHFIKDIRHLPVNSKEFLAKEESQIPVDEVFFHRYYKKVAVKEKQKRDADEESIEDVDDEEFEELIDTFEDDNCFSSGKDDMDFAGNVKKRTKGAKDNTLDEDSEGSDDELGNLDDDEVSLGSMDDEEFAEVDEDGGTFMDVLDDESESVPELEVHSKVSTKKSKRKGTDDFDFAGSFQGPRKKKRNLNDSSLFVSAEEFGHLLDENMGSKFDNIGMNAMANKDNASLKQLRWEAERDDWLHNRDAKSIIKKKKHFKKKRIKTTQKTKKQRK
As to B2, the binding entry (with FIRΔexon2-FLAG (human); in test [1]) was “binds” each time.

B3: RNA-binding protein 28 (protein, UniProt Q9NW13 1-759)
chain: MAGLTLFVGRLPPSARSEQLEELFSQVGPVKQCFVVTEKGSKACRGFGYVTFSMLEDVQRALKEITTFEGCKINVTVAKKKLRNKTKEKGKNENSECPKKEPKAKKAKVADKKARLIIRNLSFKCSEDDLKTVFAQFGAVLEVNIPRKPDGKMRGFGFVQFKNLLEAGKALKGMNMKEIKGRTVAVDWAVAKDKYKDTQSVSAIGEEKSHESKHQESVKKKGREEEDMEEEENDDDDDDDDEEDGVFDDEDEEEENIESKVTKPVQIQKRAVKRPAPAKSSDHSEEDSDLEESDSIDDGEELAQSDTSTEEQEDKAVQVSNKKKRKLPSDVNEGKTVFIRNLSFDSEEEELGELLQQFGELKYVRIVLHPDTEHSKGCAFAQFMTQEAAQKCLLAASPENEAGGLKLDGRQLKVDLAVTRDEAAKLQTTKVKKPTGTRNLYLAREGLIRAGTKAAEGVSAADMAKRERFELLKHQKLKDQNIFVSRTRLCLHNLPKAVDDKQLRKLLLSATSGEKGVRIKECRVMRDLKGVHGNMKGQSLGYAFAEFQEHEHALKALRLINNNPEIFGPLKRPIVEFSLEDRRKLKMKELRIQRSLQKMRSKPATGEPQKGQPEPAKDQQQKAAQHHTEEQSKVPPEQKRKAGSTSWTGFQTKAEVEQVELPDGKKRRKVLALPSHRGPKIRLRDKGKVKPVHPKKPKPQINQWKQEKQQLSSEQVSRKKAKGNKTETRFNQLVEQYKQKLLGPSKGAPLAKRSKWFDS
Turning to B3, the binding result (with FIRΔexon2-FLAG (human); in test [1]) was “binds” throughout.

B4: WD-repeat-containing protein 3 (protein, UniProt Q9UNX4 1-943)
chain: MGLTKQYLRYVASAVFGVIGSQKGNIVFVTLRGEKGRYVAVPACEHVFIWDLRKGEKILILQGLKQEVTCLCPSPDGLHLAVGYEDGSIRIFSLLSGEGNVTFNGHKAAITTLKYDQLGGRLASGSKDTDIIVWDVINESGLYRLKGHKDAITQALFLREKNLLVTSGKDTMVKWWDLDTQHCFKTMVGHRTEVWGLVLLSEEKRLITGASDSELRVWDIAYLQEIEDPEEPDPKKIKGSSPGIQDTLEAEDGAFETDEAPEDRILSCRKAGSIMREGRDRVVNLAVDKTGRILACHGTDSVLELFCILSKKEIQKKMDKKMKKARKKAKLHSSKGEEEDPEVNVEMSLQDEIQRVTNIKTSAKIKSFDLIHSPHGELKAVFLLQNNLVELYSLNPSLPTPQPVRTSRITIGGHRSDVRTLSFSSDNIAVLSAAADSIKIWNRSTLQCIRTMTCEYALCSFFVPGDRQVVIGTKTGKLQLYDLASGNLLETIDAHDGALWSMSLSPDQRGFVTGGADKSVKFWDFELVKDENSTQKRLSVKQTRTLQLDEDVLCVSYSPNQKLLAVSLLDCTVKIFYVDTLKFFLSLYGHKLPVICMDISHDGALIATGSADRNVKIWGLDFGDCHKSLFAHDDSVMYLQFVPKSHLFFTAGKDHKIKQWDADKFEHIQTLEGHHQEIWCLAVSPSGDYVVSSSHDKSLRLWERTREPLILEEEREMEREAEYEESVAKEDQPAVPGETQGDSYFTGKKTIETVKAAERIMEAIELYREETAKMKEHKAICKAAGKEVPLPSNPILMAYGSISPSAYVLEIFKGIKSSELEESLLVLPFSYVPDILKLFNEFIQLGSDVELICRCLFFLLRIHFGQITSNQMLVPVIEKLRETTISKVSQVRDVIGFNMAGLDYLKRECEAKSEVMFFADATSHLEEKKRKRKKREKLILTLT
For B4, the binding entry (with FIRΔexon2-FLAG (human); in test [1]) was “binds” each time.

B5: ATP-dependent RNA helicase DDX50 (protein, UniProt Q9BQ39 1-737)
chain: MPGKLLWGDIMELEAPLEESESQKKERQKSDRRKSRHHYDSDEKSETRENGVTDDLDAPKAKKSKMKEKLNGDTEEGFNRLSDEFSKSHKSRRKDLPNGDIDEYEKKSKRVSSLDTSTHKSSDNKLEETLTREQKEGAFSNFPISEETIKLLKGRGVTYLFPIQVKTFGPVYEGKDLIAQARTGTGKTFSFAIPLIERLQRNQETIKKSRSPKVLVLAPTRELANQVAKDFKDITRKLSVACFYGGTSYQSQINHIRNGIDILVGTPGRIKDHLQSGRLDLSKLRHVVLDEVDQMLDLGFAEQVEDIIHESYKTDSEDNPQTLLFSATCPQWVYKVAKKYMKSRYEQVDLVGKMTQKAATTVEHLAIQCHWSQRPAVIGDVLQVYSGSEGRAIIFCETKKNVTEMAMNPHIKQNAQCLHGDIAQSQREITLKGFREGSFKVLVATNVAARGLDIPEVDLVIQSSPPQDVESYIHRSGRTGRAGRTGICICFYQPRERGQLRYVEQKAGITFKRVGVPSTMDLVKSKSMDAIRSLASVSYAAVDFFRPSAQRLIEEKGAVDALAAALAHISGASSFEPRSLITSDKGFVTMTLESLEEIQDVSCAWKELNRKLSSNAVSQITRMCLLKGNMGVCFDVPTTESERLQAEWHDSDWILSVPAKLPEIEEYYDGNTSSNSRQRSGWSSGRSGRSGRSGGRSGGRSGRQSRQGSRSGSRQDGRRRSGNRNRSRSGGHKRSFD
As for B5, the binding entry (with FIRΔexon2-FLAG (human); in test [1]) was “binds” each time.

B6: Isoform 1 of Transformer-2 protein homolog beta (protein, UniProt P62995 1-288)
chain: MSDSGEQNYGERESRSASRSGSAHGSGKSARHTPARSRSKEDSRRSRSKSRSRSESRSRSRRSSRRHYTRSRSRSRSHRRSRSRSYSRDYRRRHSHSHSPMSTRRRHVGNRANPDPNCCLGVFGLSLYTTERDLREVFSKYGPIADVSIVYDQQSRRSRGFAFVYFENVDDAKEAKERANGMELDGRRIRVDFSITKRPHTPTPGIYMGRPTYGSSRRRDYYDRGYDRGYDDRDYYSRSYRGGGGGGGGWRAAQDRDQIYRRRSPSPYYSRGGYRSRSRSRSYSPRRY
For B6, the binding entry (in the test with FIRΔexon2-FLAG (human); in test [1]) was “binds” each time.

B7: WD-repeat-containing protein 75 (protein, UniProt Q8IWA0 1-830)
chain: MVEEENIRVVRCGGSELNFRRAVFSADSKYIFCVSGDFVKVYSTVTEECVHILHGHRNLVTGIQLNPNNHLQLYSCSLDGTIKLWDYIDGILIKTFIVGCKLHALFTLAQAEDSVFVIVNKEKPDIFQLVSVKLPKSSSQEVEAKELSFVLDYINQSPKCIAFGNEGVYVAAVREFYLSVYFFKKKTTSRFTLSSSRNKKHAKNNFTCVACHPTEDCIASGHMDGKIRLWRNFYDDKKYTYTCLHWHHDMVMDLAFSVTGTSLLSGGRESVLVEWRDATEKNKEFLPRLGATIEHISVSPAGDLFCTSHSDNKIIIIHRNLEASAVIQGLVKDRSIFTGLMIDPRTKALVLNGKPGHLQFYSLQSDKQLYNLDIIQQEYINDYGLIQIELTKAAFGCFGNWLATVEQRQEKETELELQMKLWMYNKKTQGFILNTKINMPHEDCITALCFCNAEKSEQPTLVTASKDGYFKVWILTDDSDIYKKAVGWTCDFVGSYHKYQATNCCFSEDGSLLAVSFEEIVTIWDSVTWELKCTFCQRAGKIRHLCFGRLTCSKYLLGATENGILCCWNLLSCALEWNAKLNVRVMEPDPNSENIAAISQSSVGSDLFVFKPSEPRPLYIQKGISREKVQWGVFVPRDVPESFTSEAYQWLNRSQFYFLTKSQSLLTFSTKSPEEKLTPTSKQLLAEESLPTTPFYFILGKHRQQQDEKLNETLENELVQLPLTENIPAISELLHTPAHVLPSAAFLCSMFVNSLLLSKETKSAKEIPEDVDMEEEKESEDSDEENDFTEKVQDTSNTGLGEDIIHQLSKSEEKELRKFRKIDYSWIAAL
As for B7, the binding result (with FIRΔexon2-FLAG (human); in test [1]) was “binds” in each case.

The record behind these values is PMC7028737.
